Experimental data published in patent US20110280807A1, “Methods and Models for Stress-Induced Analgesia” (UNIVERSITY OF GEORGIA RESEARCH FOUNDATION, INC., priority 2005, published 2011).

Test: LC/MS/MS quantification of endocannabinoids in brain tissue after footshock
Assay type: in vivo, rat
Details: dorsal midbrain samples containing dorsolateral periaqueductal gray

CCCCC/C=C\C/C=C\C/C=C\C/C=C\CCCCOC(CO)CO [2-AG, 2arachidonylglycerol]
elevation of 2-AG level, stressor vs non-shocked control rats: 40.6%
